Some of the results follow.
Tests used:
Assay in all cases: log2 fold change, soluble protein after heating vs DMSO (PISA); higher = thermal stabilisation; K562 lysate, 10 uM; active = over 0.2 and 3.5 SD of the protein, either way, in both replicates (recomputed)
[1] = compound: CCCS(=O)(=O)Nc1ccc(F)c(C(=O)c2c[nH]c3ncc(-c4ccc(Cl)cc4)cc23)c1F [vemurafenib]
In short: (§1)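 Soluble protein was defined as the supernatant remaining after 21,000xg for 90 min, following pooling of heated aliquots and adjustment to 0.5% NP-40 at 4°C. Before that, crude K562 extract at 1 mg/mL protein in PBS pH 7.4 with 1 mM MgCl2 was treated with 10 μM compound for 30 min and heated for 3 min across 48°C-58°C. Quantification used TMTpro 16plex LC-MS/MS with channel sums equalised, and values are log-two fold changes in thermal stability relative to solvent controls from duplicates.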

Amino acid sequences for entries named in this document (tags omitted). A change or cut given only in a name is not applied to a line headed by its entry.
UniProt Q9UBV8: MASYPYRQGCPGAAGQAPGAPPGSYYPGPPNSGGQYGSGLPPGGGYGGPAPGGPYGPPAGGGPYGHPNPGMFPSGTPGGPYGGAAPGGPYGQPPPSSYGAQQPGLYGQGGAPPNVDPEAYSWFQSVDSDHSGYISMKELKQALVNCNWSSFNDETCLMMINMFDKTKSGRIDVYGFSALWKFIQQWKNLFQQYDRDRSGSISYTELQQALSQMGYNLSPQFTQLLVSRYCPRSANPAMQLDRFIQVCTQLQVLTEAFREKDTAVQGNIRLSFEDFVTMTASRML
UniProt Q96KB5: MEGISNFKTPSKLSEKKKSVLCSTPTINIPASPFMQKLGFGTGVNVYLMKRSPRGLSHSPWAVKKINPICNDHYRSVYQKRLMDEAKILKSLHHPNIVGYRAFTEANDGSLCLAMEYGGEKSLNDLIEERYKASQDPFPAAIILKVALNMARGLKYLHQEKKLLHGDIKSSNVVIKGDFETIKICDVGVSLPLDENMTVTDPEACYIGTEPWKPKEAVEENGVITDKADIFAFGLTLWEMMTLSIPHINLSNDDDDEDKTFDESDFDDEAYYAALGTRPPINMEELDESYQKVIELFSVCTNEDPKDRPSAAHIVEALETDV
UniProt Q13371: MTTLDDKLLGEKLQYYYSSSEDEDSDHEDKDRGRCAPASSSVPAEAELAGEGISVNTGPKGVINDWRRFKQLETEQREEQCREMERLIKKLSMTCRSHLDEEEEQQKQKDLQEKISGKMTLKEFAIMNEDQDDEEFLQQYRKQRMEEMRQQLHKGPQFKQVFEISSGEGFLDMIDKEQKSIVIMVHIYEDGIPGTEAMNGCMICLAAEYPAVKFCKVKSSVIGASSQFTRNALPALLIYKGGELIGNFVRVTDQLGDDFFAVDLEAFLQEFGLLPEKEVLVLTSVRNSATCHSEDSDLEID
UniProt Q9NUG6, whole entry, looked up: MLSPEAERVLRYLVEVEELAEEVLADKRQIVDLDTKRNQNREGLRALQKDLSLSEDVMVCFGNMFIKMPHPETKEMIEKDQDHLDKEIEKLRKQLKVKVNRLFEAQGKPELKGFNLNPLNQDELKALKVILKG
UniProt Q96RG2: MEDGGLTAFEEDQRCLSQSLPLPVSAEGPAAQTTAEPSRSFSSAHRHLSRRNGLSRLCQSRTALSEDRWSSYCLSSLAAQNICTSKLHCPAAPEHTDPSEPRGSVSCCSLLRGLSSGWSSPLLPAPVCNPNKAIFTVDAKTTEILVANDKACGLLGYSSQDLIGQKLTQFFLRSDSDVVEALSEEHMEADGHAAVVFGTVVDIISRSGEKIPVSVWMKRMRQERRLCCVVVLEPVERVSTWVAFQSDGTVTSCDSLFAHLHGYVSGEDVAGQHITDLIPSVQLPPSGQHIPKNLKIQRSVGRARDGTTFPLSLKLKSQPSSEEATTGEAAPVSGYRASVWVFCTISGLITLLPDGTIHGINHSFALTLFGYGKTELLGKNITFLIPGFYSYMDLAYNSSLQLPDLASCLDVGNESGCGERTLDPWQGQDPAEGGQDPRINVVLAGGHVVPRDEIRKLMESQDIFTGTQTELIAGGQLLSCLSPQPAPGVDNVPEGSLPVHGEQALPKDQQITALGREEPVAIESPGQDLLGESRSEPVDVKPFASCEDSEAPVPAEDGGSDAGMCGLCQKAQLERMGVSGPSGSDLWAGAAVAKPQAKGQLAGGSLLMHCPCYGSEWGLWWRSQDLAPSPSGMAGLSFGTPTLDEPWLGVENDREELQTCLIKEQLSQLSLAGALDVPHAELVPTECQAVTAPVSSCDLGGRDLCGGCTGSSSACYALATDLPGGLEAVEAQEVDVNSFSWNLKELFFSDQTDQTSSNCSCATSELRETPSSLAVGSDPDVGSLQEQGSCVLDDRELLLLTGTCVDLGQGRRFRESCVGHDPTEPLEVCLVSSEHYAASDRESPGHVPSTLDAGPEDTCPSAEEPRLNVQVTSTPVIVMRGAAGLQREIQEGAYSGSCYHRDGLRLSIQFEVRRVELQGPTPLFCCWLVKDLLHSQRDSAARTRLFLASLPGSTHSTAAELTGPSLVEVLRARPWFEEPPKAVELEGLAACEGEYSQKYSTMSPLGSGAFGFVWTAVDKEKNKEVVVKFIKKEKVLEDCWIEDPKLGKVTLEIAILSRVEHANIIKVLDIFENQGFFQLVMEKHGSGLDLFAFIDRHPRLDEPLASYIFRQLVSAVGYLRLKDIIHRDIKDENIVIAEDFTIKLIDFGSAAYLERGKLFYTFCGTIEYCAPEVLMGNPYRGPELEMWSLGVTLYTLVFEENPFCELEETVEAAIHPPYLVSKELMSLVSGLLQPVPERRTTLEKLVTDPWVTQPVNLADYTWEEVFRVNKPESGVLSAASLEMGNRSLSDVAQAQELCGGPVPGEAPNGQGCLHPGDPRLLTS
UniProt H7BZJ3: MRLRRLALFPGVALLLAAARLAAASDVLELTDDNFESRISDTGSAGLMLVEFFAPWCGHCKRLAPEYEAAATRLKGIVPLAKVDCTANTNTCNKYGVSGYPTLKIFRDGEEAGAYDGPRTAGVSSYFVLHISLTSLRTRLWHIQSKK
UniProt P50479: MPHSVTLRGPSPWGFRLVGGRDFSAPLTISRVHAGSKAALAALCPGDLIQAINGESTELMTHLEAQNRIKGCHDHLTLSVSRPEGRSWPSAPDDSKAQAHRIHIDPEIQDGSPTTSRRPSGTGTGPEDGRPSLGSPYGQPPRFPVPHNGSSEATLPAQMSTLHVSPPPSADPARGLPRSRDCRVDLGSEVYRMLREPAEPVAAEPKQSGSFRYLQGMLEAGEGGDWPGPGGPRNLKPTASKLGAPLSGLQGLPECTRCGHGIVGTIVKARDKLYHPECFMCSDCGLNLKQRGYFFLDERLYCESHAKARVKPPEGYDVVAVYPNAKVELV
UniProt Q9BUL8: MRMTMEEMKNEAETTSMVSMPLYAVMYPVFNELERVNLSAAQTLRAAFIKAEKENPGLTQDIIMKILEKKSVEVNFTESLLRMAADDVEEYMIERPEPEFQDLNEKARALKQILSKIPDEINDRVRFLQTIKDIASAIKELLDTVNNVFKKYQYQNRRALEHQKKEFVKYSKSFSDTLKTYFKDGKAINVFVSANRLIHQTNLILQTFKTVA
UniProt Q8NBP7, whole entry, looked up: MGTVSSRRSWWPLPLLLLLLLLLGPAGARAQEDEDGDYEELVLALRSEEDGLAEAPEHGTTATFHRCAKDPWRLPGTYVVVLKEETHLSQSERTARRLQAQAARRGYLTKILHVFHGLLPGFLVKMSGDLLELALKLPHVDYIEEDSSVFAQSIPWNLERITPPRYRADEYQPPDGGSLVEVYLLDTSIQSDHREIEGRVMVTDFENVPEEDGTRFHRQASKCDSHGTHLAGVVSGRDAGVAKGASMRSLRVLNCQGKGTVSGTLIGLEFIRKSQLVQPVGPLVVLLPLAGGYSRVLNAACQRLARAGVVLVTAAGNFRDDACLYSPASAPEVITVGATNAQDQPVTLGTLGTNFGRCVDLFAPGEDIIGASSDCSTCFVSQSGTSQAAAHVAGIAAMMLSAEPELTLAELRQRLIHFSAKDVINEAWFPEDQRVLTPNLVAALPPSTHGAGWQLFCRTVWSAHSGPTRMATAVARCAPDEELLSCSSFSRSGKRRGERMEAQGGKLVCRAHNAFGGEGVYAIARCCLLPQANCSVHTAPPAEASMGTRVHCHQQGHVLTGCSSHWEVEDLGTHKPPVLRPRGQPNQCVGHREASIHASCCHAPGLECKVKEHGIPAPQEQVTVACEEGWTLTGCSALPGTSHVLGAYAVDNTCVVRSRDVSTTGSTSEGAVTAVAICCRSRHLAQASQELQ
UniProt Q16342: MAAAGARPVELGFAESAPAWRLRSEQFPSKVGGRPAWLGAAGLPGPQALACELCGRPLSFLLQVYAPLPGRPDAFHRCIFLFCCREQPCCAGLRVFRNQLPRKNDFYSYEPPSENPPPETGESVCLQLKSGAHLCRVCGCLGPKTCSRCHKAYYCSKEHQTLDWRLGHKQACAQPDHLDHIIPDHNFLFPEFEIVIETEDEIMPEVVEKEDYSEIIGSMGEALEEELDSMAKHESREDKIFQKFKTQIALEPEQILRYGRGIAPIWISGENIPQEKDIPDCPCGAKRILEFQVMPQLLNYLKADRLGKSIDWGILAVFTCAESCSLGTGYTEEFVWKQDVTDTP
UniProt P17858: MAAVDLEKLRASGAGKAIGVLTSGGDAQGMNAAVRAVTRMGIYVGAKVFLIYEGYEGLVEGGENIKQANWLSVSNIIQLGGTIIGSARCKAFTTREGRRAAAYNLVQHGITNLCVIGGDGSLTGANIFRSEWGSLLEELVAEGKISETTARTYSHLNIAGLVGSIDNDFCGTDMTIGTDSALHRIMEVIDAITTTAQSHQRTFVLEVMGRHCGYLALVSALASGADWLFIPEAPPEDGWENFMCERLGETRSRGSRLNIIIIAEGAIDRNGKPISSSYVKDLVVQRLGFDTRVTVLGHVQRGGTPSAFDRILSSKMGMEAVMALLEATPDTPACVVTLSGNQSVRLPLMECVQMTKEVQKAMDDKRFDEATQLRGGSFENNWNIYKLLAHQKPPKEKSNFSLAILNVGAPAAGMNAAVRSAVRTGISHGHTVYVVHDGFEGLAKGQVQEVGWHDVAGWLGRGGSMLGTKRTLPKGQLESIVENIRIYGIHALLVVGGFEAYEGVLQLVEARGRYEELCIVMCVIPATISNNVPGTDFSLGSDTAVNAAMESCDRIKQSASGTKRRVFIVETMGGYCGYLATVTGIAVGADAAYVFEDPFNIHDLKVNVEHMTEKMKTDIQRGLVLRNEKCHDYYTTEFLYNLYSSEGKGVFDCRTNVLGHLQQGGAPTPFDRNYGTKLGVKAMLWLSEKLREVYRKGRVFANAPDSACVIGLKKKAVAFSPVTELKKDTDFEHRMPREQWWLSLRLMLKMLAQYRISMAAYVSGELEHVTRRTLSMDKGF
UniProt O75381, whole entry, looked up: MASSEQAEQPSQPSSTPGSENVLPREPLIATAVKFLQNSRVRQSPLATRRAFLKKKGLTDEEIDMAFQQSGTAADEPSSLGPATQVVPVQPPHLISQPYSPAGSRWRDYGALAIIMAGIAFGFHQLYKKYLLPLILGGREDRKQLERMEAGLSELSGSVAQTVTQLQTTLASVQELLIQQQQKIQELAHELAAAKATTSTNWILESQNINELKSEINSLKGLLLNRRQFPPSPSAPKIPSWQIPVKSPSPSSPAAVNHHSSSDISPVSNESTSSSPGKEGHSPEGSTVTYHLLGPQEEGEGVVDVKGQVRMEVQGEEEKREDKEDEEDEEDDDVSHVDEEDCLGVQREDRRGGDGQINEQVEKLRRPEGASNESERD
UniProt Q96HS1, whole entry, looked up: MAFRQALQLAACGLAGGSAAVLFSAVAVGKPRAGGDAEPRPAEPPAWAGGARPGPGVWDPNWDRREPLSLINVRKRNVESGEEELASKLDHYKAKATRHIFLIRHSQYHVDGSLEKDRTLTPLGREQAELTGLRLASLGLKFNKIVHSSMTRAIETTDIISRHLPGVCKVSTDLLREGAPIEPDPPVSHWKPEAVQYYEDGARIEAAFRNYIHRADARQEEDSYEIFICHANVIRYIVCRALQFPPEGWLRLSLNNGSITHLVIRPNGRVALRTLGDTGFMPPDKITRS
UniProt P08559, whole entry, looked up: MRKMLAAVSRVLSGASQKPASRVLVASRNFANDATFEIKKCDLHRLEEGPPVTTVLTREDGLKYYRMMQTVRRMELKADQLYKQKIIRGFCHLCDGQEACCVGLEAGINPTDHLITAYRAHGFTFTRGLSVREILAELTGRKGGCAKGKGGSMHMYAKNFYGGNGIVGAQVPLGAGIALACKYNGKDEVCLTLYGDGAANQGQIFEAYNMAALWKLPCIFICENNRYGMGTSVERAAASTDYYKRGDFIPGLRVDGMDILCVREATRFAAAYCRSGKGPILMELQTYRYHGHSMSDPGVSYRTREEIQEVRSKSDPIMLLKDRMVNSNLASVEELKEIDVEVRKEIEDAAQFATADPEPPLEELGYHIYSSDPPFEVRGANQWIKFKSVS

[2] = compound: CCCS(=O)(=O)Nc1ccc(F)c(C(=O)c2c[nH]c3ncc(Cl)cc23)c1F
In short: as §1

[3] = compound: CCN(CCCOc1ccc2c(Nc3cc(CC(=O)Nc4cccc(F)c4)[nH]n3)ncnc2c1)CCOP(=O)(O)O [barasertib]
In short: as §1

[4] = compound: CC[C@@H]1C(=O)N(C)c2cnc(Nc3ccc(C(=O)NC4CCN(C)CC4)cc3OC)nc2N1C1CCCC1
In short: as §1

[5] = compound: CC[C@@H]1C(=O)N(C)c2cnc(Nc3ccc(C(=O)N[C@H]4CC[C@H](N5CCN(CC6CC6)CC5)CC4)cc3OC)nc2N1C(C)C [volasertib]
In short: as §1

[6] = compound: CCn1c(C(=O)N(C2CC2)C2CC2)cc2c3c(ncn3C)c(Nc3cc(C)n(C)n3)nc21
In short: as §1

[7] = compound: CCn1cc(-c2ccnc3[nH]c(-c4cccc(CN(C)C)c4)cc23)c(-c2ccc(NC(=O)N(C)C)cc2)n1
In short: as §1

[8] = compound: CN1CCC(CNc2ccc3ncc(-c4cccc(OC(F)(F)F)c4)n3n2)CC1
In short: as §1

[9] = compound: CN1CCN(CCOc2cc(OC3CCOCC3)c3c(Nc4c(Cl)ccc5c4OCO5)ncnc3c2)CC1 [saracatinib]
In short: as §1

[10] = compound: CN1CCN(c2nc(C3=C(c4c[nH]c5ccccc45)C(=O)NC3=O)c3ccccc3n2)CC1 [sotrastaurin]
In short: as §1

[11] = compound: CN1CC[C@H](c2c(O)cc(O)c3c(=O)cc(-c4ccccc4Cl)oc23)[C@H](O)C1 [alvocidib]
In short: as §1

[12] = compound: CN1CCc2c(c3ccccc3n2Cc2ccc(C(=O)NO)cc2)C1 [Tubastatin A]
In short: as §1

[13] = compound: CNC(=O)C1=CC=CC=C1NC2=NC(=NC=C2Cl)NC3=C(C=C(C=C3)N4CCOCC4)OC
In short: as §1

[14] = compound: CNC(=O)c1ccc(Nc2ncc(C(F)(F)F)c(NCc3nccnc3N(C)S(C)(=O)=O)n2)cc1 [defactinib]
In short: as §1

[15] = compound: CNc1nc(-c2ccc3c(N)n[nH]c3c2)cc(N2C[C@@H](C(=O)NC3CCCCC3)CC[C@H]2C)n1
In short: as §1

[16] = compound: COC(=O)N[C@@H](C)CNc1nccc(-c2cn(C(C)C)nc2-c2cc(Cl)cc(NS(C)(=O)=O)c2F)n1 [encorafenib]
In short: as §1

[17] = compound: COC(=O)[C@H](CCSC)NC(=O)C1=C(C=C(C=C1)NC[C@H](CS)N)C2=CC=CC=C2
In short: as §1

[18] = compound: COc1cc(Nc2ncc3c(n2)-c2ccc(Cl)cc2C(c2c(F)cccc2OC)=NC3)ccc1C(=O)O [alisertib]
In short: as §1

[19] = compound: COc1cc2nc(-c3cc(F)ccc3O)nc(N[C@@H]3CNC[C@H]3C(C)(C)O)c2cc1OC
In short: as §1

[20] = compound: COc1cc2ncnc(Nc3ccc(F)c(Cl)c3)c2cc1OCCCN1CCOCC1 [gefitinib]
In short: as §1

Row | Target | log2 fold change [1] | log2 fold change [2] | log2 fold change [3] | log2 fold change [4] | log2 fold change [5] | log2 fold change [6] | log2 fold change [7] | log2 fold change [8] | log2 fold change [9] | log2 fold change [10] | log2 fold change [11] | log2 fold change [12] | log2 fold change [13] | log2 fold change [14] | log2 fold change [15] | log2 fold change [16] | log2 fold change [17] | log2 fold change [18] | log2 fold change [19] | log2 fold change [20]
1 | PEF1 (UniProt Q9UBV8) | inactive: -0.025 | inactive: 0.015 | inactive: 0.189 | inactive: 0.033 | inactive: 0.009 | inactive: -0.001 | inactive: -0.116 | inactive: -0.043 | inactive: -0.025 | inactive: -0.016 | inactive: 0.027 | inactive: 0.097 | inactive: 0.029 | inactive: 0.087 | inactive: 0.029 | inactive: 0.039 | inactive: -0.034 | inactive: -0.017 | inactive: 0.029 | inactive: -0.02
2 | PBK (UniProt Q96KB5) | inactive: -0.006 | inactive: 0.002 | inactive: -0.009 | inactive: -0.069 | inactive: -0.033 | inactive: 0.039 | inactive: 0.043 | inactive: -0.017 | inactive: -0.018 | inactive: -0.015 | inactive: 0.013 | inactive: -0.041 | inactive: -0.001 | inactive: -0.004 | inactive: -0.015 | inactive: -0.011 | inactive: 0.099 | inactive: -0.013 | inactive: -0.003 | inactive: -0.023
3 | PDCL (UniProt Q13371) | inactive: 0.014 | inactive: 0.017 | inactive: -0.001 | inactive: 0.012 | inactive: -0.015 | inactive: -0.009 | inactive: -0.071 | inactive: -0.014 | inactive: -0.021 | inactive: 0.027 | inactive: -0.008 | inactive: -0.017 | inactive: 0.008 | inactive: -0.046 | inactive: 0.033 | inactive: 0.01 | inactive: 0.011 | inactive: -0.042 | inactive: -0.001 | inactive: 0.027
4 | PDRG1 (UniProt Q9NUG6) | inactive: 0.057 | inactive: 0.019 | inactive: -0.036 | inactive: 0.045 | inactive: 0.037 | inactive: -0.013 | inactive: 0.005 | inactive: -0.01 | inactive: 0.013 | inactive: 0.003 | inactive: 0.001 | inactive: 0.038 | inactive: 0.009 | inactive: 0.043 | inactive: 0.04 | inactive: 0.03 | inactive: -0.009 | inactive: -0.04 | inactive: 0.006 | inactive: 0.05
5 | PARP14 (UniProt Q460N5) | inactive: 0.067 | inactive: 0.062 | inactive: 0.038 | inactive: 0.007 | inactive: 0.001 | inactive: 0.003 | inactive: -0.08 | inactive: 0.075 | inactive: 0.119 | inactive: -0.058 | inactive: 0.009 | inactive: -0.238 | inactive: -0.15 | inactive: -0.007 | inactive: -0.09 | inactive: 0.021 | inactive: 0.082 | inactive: -0.127 | inactive: 0 | inactive: -0.014
6 | PASK (UniProt Q96RG2) | inactive: -0.081 | inactive: 0.021 | inactive: 0.001 | inactive: 0 | inactive: -0.065 | inactive: -0.013 | inactive: -0.017 | inactive: 0.037 | inactive: -0.001 | inactive: 0.109 | inactive: 0.02 | inactive: -0.034 | inactive: 0.083 | inactive: 0.044 | inactive: 0.039 | inactive: 0.04 | inactive: 0 | inactive: -0.083 | inactive: -0.03 | inactive: -0.007
7 | PDIA3 (UniProt H7BZJ3) | inactive: 0.033 | inactive: -0.004 | inactive: -0.05 | inactive: 0.102 | inactive: -0.022 | inactive: -0.092 | inactive: 0.051 | inactive: 0.112 | inactive: -0.099 | inactive: -0.035 | inactive: -0.055 | inactive: 0.148 | inactive: -0.093 | inactive: -0.002 | inactive: 0.007 | inactive: 0.066 | inactive: -0.036 | inactive: -0.095 | inactive: -0.005 | inactive: 0.02
8 | PDLIM4 (UniProt P50479) | inactive: 0.01 | inactive: 0.016 | inactive: -0.059 | inactive: 0.028 | inactive: 0.006 | inactive: 0.013 | inactive: 0.003 | inactive: 0.057 | inactive: 0.004 | inactive: -0.02 | inactive: -0.045 | inactive: 0.069 | inactive: 0.035 | inactive: -0.028 | inactive: 0.044 | inactive: 0.033 | inactive: -0.099 | inactive: -0.035 | inactive: -0.026 | inactive: -0.028
9 | PDCD10 (UniProt Q9BUL8) | inactive: -0.021 | inactive: -0.002 | inactive: 0.006 | inactive: -0.012 | inactive: 0.007 | inactive: 0 | active: -0.269 | inactive: 0.029 | inactive: 0.016 | inactive: 0.04 | inactive: -0.053 | inactive: -0.002 | inactive: 0.013 | inactive: 0.029 | inactive: -0.005 | inactive: -0.019 | inactive: 0.034 | inactive: 0.01 | inactive: 0.05 | inactive: -0.025
10 | PCSK9 (UniProt Q8NBP7) | inactive: 0.034 | inactive: -0.005 | inactive: 0.106 | inactive: 0 | inactive: 0.015 | inactive: 0.016 | inactive: -0.045 | inactive: 0.024 | inactive: -0.063 | inactive: -0.039 | inactive: -0.074 | inactive: -0.01 | inactive: 0.016 | inactive: 0.049 | inactive: 0.065 | inactive: 0.037 | inactive: 0.006 | inactive: 0.008 | inactive: 0.026 | inactive: 0.028
11 | PDCD2 (UniProt Q16342) | inactive: 0.004 | inactive: -0.095 | inactive: 0.042 | inactive: -0.064 | inactive: 0.006 | inactive: 0.016 | inactive: -0.073 | inactive: 0 | inactive: 0.036 | inactive: -0.052 | inactive: 0.001 | inactive: -0.017 | inactive: 0.003 | inactive: -0.01 | inactive: 0.02 | inactive: -0.018 | inactive: 0.076 | inactive: -0.015 | inactive: 0.012 | inactive: -0.051
12 | PFAS (UniProt O15067) | inactive: 0.029 | inactive: 0.023 | inactive: 0.015 | inactive: -0.048 | inactive: -0.091 | inactive: 0 | inactive: -0.023 | inactive: 0.001 | inactive: -0.013 | inactive: -0.015 | inactive: -0.015 | inactive: -0.01 | inactive: 0.009 | inactive: 0.022 | inactive: 0 | inactive: -0.004 | inactive: 0.119 | inactive: 0.009 | inactive: -0.011 | inactive: -0.009
13 | PFKL isoform 2 (UniProt P17858) | inactive: -0.022 | inactive: -0.152 | inactive: 0.005 | inactive: 0.036 | inactive: 0.028 | inactive: -0.028 | inactive: 0.048 | inactive: -0.051 | inactive: 0.008 | inactive: 0.013 | inactive: -0.025 | inactive: 0.025 | inactive: 0.069 | inactive: -0.033 | inactive: 0.036 | inactive: -0.025 | inactive: -0.064 | inactive: -0.021 | inactive: 0.01 | inactive: 0.009
14 | PEX14 (UniProt O75381) | inactive: -0.016 | inactive: 0.01 | inactive: 0.019 | inactive: 0.031 | inactive: -0.026 | inactive: 0.003 | inactive: -0.101 | inactive: 0.003 | inactive: -0.014 | inactive: 0.013 | inactive: -0.017 | inactive: 0.008 | inactive: -0.001 | inactive: 0.013 | inactive: 0.06 | inactive: -0.012 | inactive: 0.134 | inactive: -0.021 | inactive: 0.049 | inactive: -0.023
15 | PGAM5 (UniProt Q96HS1) | inactive: 0.004 | inactive: -0.006 | inactive: 0.015 | inactive: 0.015 | inactive: -0.034 | inactive: -0.009 | inactive: -0.101 | inactive: 0.036 | inactive: 0.005 | inactive: -0.002 | inactive: 0.004 | inactive: 0.022 | inactive: 0.001 | inactive: 0.017 | inactive: -0.019 | inactive: 0.058 | inactive: -0.103 | inactive: -0.019 | inactive: -0.006 | inactive: 0.019
16 | PDHA1 isoform 4 (UniProt P08559) | inactive: 0.002 | inactive: 0.009 | inactive: 0.039 | inactive: -0.008 | inactive: -0.054 | inactive: 0.009 | inactive: 0.195 | inactive: -0.101 | inactive: -0.066 | inactive: -0.016 | inactive: 0.053 | inactive: -0.057 | inactive: 0.027 | inactive: -0.019 | inactive: -0.007 | inactive: -0.024 | inactive: 0.11 | inactive: -0.002 | inactive: 0 | inactive: 0.011

Record cards, as listed above. Order of values: log2 fold change [1]	log2 fold change [2]	log2 fold change [3]	log2 fold change [4]	log2 fold change [5]	log2 fold change [6]	log2 fold change [7]	log2 fold change [8]	log2 fold change [9]	log2 fold change [10]	log2 fold change [11]	log2 fold change [12]	log2 fold change [13]	log2 fold change [14]	log2 fold change [15]	log2 fold change [16]	log2 fold change [17]	log2 fold change [18]	log2 fold change [19]	log2 fold change [20]
PEF1 (UniProt Q9UBV8) is listed as inactive: -0.025	inactive: 0.015	inactive: 0.189	inactive: 0.033	inactive: 0.009	inactive: -0.001	inactive: -0.116	inactive: -0.043	inactive: -0.025	inactive: -0.016	inactive: 0.027	inactive: 0.097	inactive: 0.029	inactive: 0.087	inactive: 0.029	inactive: 0.039	inactive: -0.034	inactive: -0.017	inactive: 0.029	inactive: -0.02
PDHA1 isoform 4 (UniProt P08559) is listed as inactive: 0.002	inactive: 0.009	inactive: 0.039	inactive: -0.008	inactive: -0.054	inactive: 0.009	inactive: 0.195	inactive: -0.101	inactive: -0.066	inactive: -0.016	inactive: 0.053	inactive: -0.057	inactive: 0.027	inactive: -0.019	inactive: -0.007	inactive: -0.024	inactive: 0.11	inactive: -0.002	inactive: 0	inactive: 0.011
